Among the data in PubChem BioAssay AID248 (DTP/NCI, 2004) are survivor count and T/C values, retold here.

Each structure is given as a SMILES string. The list shows only some results of the screen, not a fair sample: it gathers tests that were run many times, whatever their T/C, doses with no T/C, and many T/C values between a quarter and a half above the control. Further doses and runs are listed elsewhere. T/C gives the treated animals as a percentage of the vehicle group. Some doses have a count of surviving animals in place of a T/C: the source holds a T/C of zero for them, seemingly a mark for toxic or unscored doses. Some survivor counts are full or nearly so, which does not show that the dose was tolerated: survival well below the control is almost never listed, so the zero probably covers shortened survival too. Counts of survivors are from the toxicity check (mostly the fifth day) where no day follows; animals may have died later. Schedule codes are those of the source, taken here to give the interval after Q, in days (D) or hours (H), and the number of doses after X. Some entries hold several experiments; their values stand side by side, smallest first. Some schedules carry Z or #; the key to these is not given. For survival time, the PubChem record calls one and a half times the control and up active, and a quarter to a half above the control has no call in these data; cut-offs in other NCI protocols can differ.

The test system of this experiment is L1210 leukemia ip in BDF1 mice, survival T/C. Briefly: NCI In Vivo Anticancer Drug Screen. Data for tumor model L1210 Leukemia (intraperitoneal) in B6D2F1 (BDF1) mice. The following applies: T/C endpoint: mean survival time, higher T/C = longer survival.
The mark [1] stands for this setting: dose: 100.0 mg/kg/injection, schedule: Q01DX009 (ip), vehicle: saline.
[2] abbreviates: dose: 400.0 mg/kg/injection, schedule: Q04DX003 (ip), vehicle: saline.
The mark [3] stands for this setting: dose: 100.0 mg/kg/injection, schedule: Q04DX002 (ip), vehicle: Klucel (hydroxypropylcellulose) (HPC).
Where [4] appears, read: dose: 400.0 mg/kg/injection, schedule: Q04DX002 (ip), vehicle: Klucel (hydroxypropylcellulose) (HPC).
[5] abbreviates: dose: 100.0 mg/kg/injection, schedule: Q01DX009 (ip), vehicle: Klucel (hydroxypropylcellulose) (HPC).
Setting [6] is: dose: 150.0 mg/kg/injection, schedule: Q01DX001 (ip), vehicle: saline.
Setting [7] is: dose: 400.0 mg/kg/injection, schedule: Q01DX001 (ip), vehicle: saline.
Setting [8] is: dose: 400.0 mg/kg/injection, schedule: Q01DX001 (ip), vehicle: carboxymethylcellulose (CMC).

For `COc1cccc(/C=C/[N+](=O)[O-])c1OC`, the survivor count runs as follows: under setting [1], 2 of 6; (dose: 200.0 mg/kg/injection, schedule: Q01DX009 (ip), vehicle: saline) 0 of 6; (dose: 300.0 mg/kg/injection, schedule: Q01DX009 (ip), vehicle: saline) 0 of 6; (dose: 400.0 mg/kg/injection, schedule: Q01DX001 (ip), vehicle: other) 0 of 4; under setting [2], 1 of 6.

With `O=C1C/C(=C\c2ccccc2O)C(=O)c2ccccc21`, the survivor count was 1 of 3 under setting [3]; 0 of 3 (dose: 200.0 mg/kg/injection, schedule: Q04DX002 (ip), vehicle: Klucel (hydroxypropylcellulose) (HPC)); 0 of 3 under setting [4].

`Cc1nn(CCO)c(C)c1N=[N+]([O-])c1c(C)nn(CCO)c1C`: the survivor count is recorded as 4 of 7 (dose: 50.0 mg/kg/injection, schedule: Q01DX009 (ip), vehicle: saline); 4 of 7 (dose: 70.0 mg/kg/injection, schedule: Q01DX009 (ip), vehicle: saline); 6 of 6 under setting [5].

Consider `COc1nn(O)cc(C)c1=N`, for which the survivor count (dose: 50.0 mg/kg/injection, schedule: Q04DX002 (ip), vehicle: saline with Tween-80) is reported as 3 of 3.

Consider `O=C(O)c1c(-c2ccccc2)oc(-c2ccccc2)c1C(=O)O`, for which the survivor count (dose: 400.0 mg/kg/injection, schedule: Q04DX002 (ip), vehicle: saline) is 3 of 3.

`CC(C)NCCNc1ccnc2cc(Cl)ccc12`: the survivor count (dose: 75.0 mg/kg/injection, schedule: Q01DX001 (ip), vehicle: saline) is given as 2 of 6; the survivor count under setting [6] is recorded as 0 of 6; the survivor count (dose: 300.0 mg/kg/injection, schedule: Q01DX001 (ip), vehicle: saline) is given as 0 of 6.

As for `CCOC(=O)C(=N\Nc1ccc(Cl)cc1Cl)/C(C)=N\NC(N)=S`, the survivor count under setting [6] was 6 of 6.

Turning to `C=CCOC(=S)S`, under setting [7], the survivor count is on record as 0 of 6.

As to `Nc1ncnc2c1ncn2C1CC(CO)C(O)C1O` (stereo unspecified), the survivor count (dose: 50.0 mg/kg/injection, schedule: Q01DX009 (ip), vehicle: carboxymethylcellulose (CMC)) is given as 4 of 6.

Regarding `O=C1NC(=S)S/C1=C\c1c(Cl)cccc1Cl`, the survivor count is, setting by setting: (dose: 150.0 mg/kg/injection, schedule: Q01DX001 (ip), vehicle: other) 0 of 6; (dose: 300.0 mg/kg/injection, schedule: Q01DX001 (ip), vehicle: other) 0 of 6.

`N#Cc1ccc(/C=C\c2ccc(C#N)cc2)cc1`: the survivor count runs as follows: under setting [3], 3 of 3; under setting [4], 3 of 3.

Regarding `O=[N+]([O-])c1cccc([I+]c2ccccc2)c1`, the survivor count under setting [7] is listed as 0 of 4.

For the compound `Cc1ccc(NC(=O)COc2ccc(Cl)cc2Cl)cc1Cl`, under “dose: 100.0 mg/kg/injection, schedule: Q01DX009 (ip), vehicle: saline with Tween-80”, the survivor count is given as 6 of 6.

Regarding `Cc1ccc(NC(=O)N(C)N=O)cc1`, the survivor count reads like this: (dose: 59.0 mg/kg/injection, schedule: Q01DX009 (ip), vehicle: carboxymethylcellulose (CMC)) 4 of 6; (dose: 89.0 mg/kg/injection, schedule: Q01DX009 (ip), vehicle: carboxymethylcellulose (CMC)) 1 of 6; (dose: 133.0 mg/kg/injection, schedule: Q01DX009 (ip), vehicle: carboxymethylcellulose (CMC)) 3 of 6; (dose: 200.0 mg/kg/injection, schedule: Q01DX009 (ip), vehicle: carboxymethylcellulose (CMC)) 0 of 6; (dose: 300.0 mg/kg/injection, schedule: Q01DX001 (ip), vehicle: carboxymethylcellulose (CMC)) 1 of 6; under setting [8], 0 of 4. Also, where the note is “dose: 200.0 mg/kg/injection, schedule: Q01DX001 (ip), vehicle: carboxymethylcellulose (CMC)”, the T/C is 134 and 140 % of control.

Take `Cc1cc(C)c(NC(=O)Nc2ccccc2F)cc1C`: the survivor count was 6 of 6 under setting [5]; 6 of 6 (dose: 200.0 mg/kg/injection, schedule: Q01DX009 (ip), vehicle: Klucel (hydroxypropylcellulose) (HPC)); 5 of 6 and 6 of 6 (dose: 400.0 mg/kg/injection, schedule: Q01DX009 (ip), vehicle: Klucel (hydroxypropylcellulose) (HPC)).

Take `O[C@H]1[C@H]2c3cc4c(cc3CN3CCC(=C[C@@H]1O)[C@H]23)OCO4`: the survivor count (dose: 50.0 mg/kg/injection, schedule: Q01DX Z (ip), vehicle: steroid suspending solution) is listed as 0 of 4; the survivor count (dose: 100.0 mg/kg/injection, schedule: Q01DX Z (ip), vehicle: steroid suspending solution) is 1 of 4; the survivor count (dose: 125.0 mg/kg/injection, schedule: Q01DX Z (ip), vehicle: steroid suspending solution) was 1 of 4 and 4 of 4.

Consider `COc1cc(CCO)cc(OC)c1`, for which the survivor count is recorded as 4 of 4 (dose: 50.0 mg/kg/injection, schedule: Q01DX001 (ip), vehicle: carboxymethylcellulose (CMC)) and 4 of 4 under setting [8].

On to `N#Cc1cnc2nc(N)nc(N)c2c1`, for which the survivor count under setting [1] is listed as 6 of 6; the survivor count (dose: 400.0 mg/kg/injection, schedule: Q01DX009 (ip), vehicle: saline) was 2 of 6 and 4 of 6; the survivor count under setting [2] is on record as 2 of 6.

On to `CC(C)NNC(C)Cc1ccccc1` (stereo unspecified), for which the survivor count was 2 of 4 (dose: 200.0 mg/kg/injection, schedule: Q04DX003 (ip), vehicle: Klucel (hydroxypropylcellulose) (HPC)) and 0 of 4 (dose: 400.0 mg/kg/injection, schedule: Q04DX003 (ip), vehicle: Klucel (hydroxypropylcellulose) (HPC)).

For `N#CC(C#N)=NNc1cccc(Cl)c1Cl`, the survivor count by setting is: (dose: 20.0 mg/kg/injection, schedule: Q01DX009 (ip), vehicle: saline with Tween-80) 3 of 6; (dose: 100.0 mg/kg/injection, schedule: Q04DX003 (ip), vehicle: saline with Tween-80) 0 of 6; (dose: 200.0 mg/kg/injection, schedule: Q04DX003 (ip), vehicle: saline with Tween-80) 0 of 6; (dose: 400.0 mg/kg/injection, schedule: Q04DX003 (ip), vehicle: saline with Tween-80) 0 of 6.

Consider `O=C(Nc1cccc(C2=NCCCN2)c1)Nc1ccc(NC(=O)Nc2cccc(C3=NCCCN3)c2)c(Cl)c1`, for which the T/C (dose: 1.87 mg/kg/injection, schedule: Q01DX Z (ip), vehicle: carboxymethylcellulose (CMC)) was 142 % of control; the T/C (dose: 15.0 mg/kg/injection, schedule: Q01DX Z (ip), vehicle: carboxymethylcellulose (CMC)) was 143 % of control; the T/C (dose: 18.0 mg/kg/injection, schedule: Q01DX001 (ip), vehicle: other) is 141 % of control. Also, the survivor count (dose: 30.0 mg/kg/injection, schedule: Q01DX Z (ip), vehicle: carboxymethylcellulose (CMC)) is given as 6 of 6; the survivor count (dose: 62.0 mg/kg/injection, schedule: Q01DX Z (ip), vehicle: carboxymethylcellulose (CMC)) is reported as 0 of 6; the survivor count (dose: 90.0 mg/kg/injection, schedule: Q01DX001 (ip), vehicle: carboxymethylcellulose (CMC)) is given as 1 of 10; the survivor count (dose: 90.0 mg/kg/injection, schedule: Q01DX001 (ip), vehicle: other) is given as 0 of 10; the survivor count (dose: 125.0 mg/kg/injection, schedule: Q01DX Z (ip), vehicle: carboxymethylcellulose (CMC)) is 0 of 6; the survivor count (dose: 250.0 mg/kg/injection, schedule: Q01DX Z (ip), vehicle: carboxymethylcellulose (CMC)) is recorded as 0 of 6. The survivor count (dose: 500.0 mg/kg/injection, schedule: Q01DX Z (ip), vehicle: carboxymethylcellulose (CMC)) is 0 of 6.

On to `CCc1cnc(N)nc1N`, for which the survivor count (dose: 200.0 mg/kg/injection, schedule: Q01DX001 (ip), vehicle: Klucel (hydroxypropylcellulose) (HPC)) was 3 of 6 and the survivor count (dose: 400.0 mg/kg/injection, schedule: Q01DX001 (ip), vehicle: Klucel (hydroxypropylcellulose) (HPC)) was 0 of 6.
